No constants are given. Whether binding was seen depends on the method and setting. Some binding calls cover weakened binding; strength is not graded here. Values belong to the substance of their own block, whether it stands above or below them.
Assays:
Assay in all cases: cryo-EM structure
[1] = molecular target: ELIC quintuple mutant P254G/C300S/V261Y/G319F/I320F (ELIC5) (Erwinia chrysanthemi) (UniProt P0C7B7)
[2] = molecular target: ELIC triple mutant V261Y/G319F/I320F (ELIC3) (Erwinia chrysanthemi) (UniProt P0C7B7)
[3] = molecular target: Erwinia chrysanthemi ligand-gated ion channel (ELIC), wild type (Erwinia chrysanthemi) (UniProt P0C7B7)

Sequences of proteins named here, by UniProt entry; tags and fusion partners are left off. A change or cut given only in a name is not applied to a line headed by its entry.
UniProt P0C7B7: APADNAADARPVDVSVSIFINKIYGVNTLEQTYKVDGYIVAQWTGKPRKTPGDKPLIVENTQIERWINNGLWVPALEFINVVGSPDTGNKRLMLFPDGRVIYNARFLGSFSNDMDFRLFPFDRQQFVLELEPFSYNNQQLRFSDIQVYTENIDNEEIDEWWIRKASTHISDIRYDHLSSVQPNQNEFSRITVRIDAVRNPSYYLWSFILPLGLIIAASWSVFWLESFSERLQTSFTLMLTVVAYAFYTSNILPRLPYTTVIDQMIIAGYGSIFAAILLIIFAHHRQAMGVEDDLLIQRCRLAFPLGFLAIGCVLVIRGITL

binding [1]: binds
Substance: ELIC quintuple mutant P254G/C300S/V261Y/G319F/I320F (ELIC5) (from UniProt P0C7B7 1-321)

binding [2]: binds
Substance: ELIC triple mutant V261Y/G319F/I320F (ELIC3) (from UniProt P0C7B7 1-321)

binding [3]: binds
Substance: Erwinia chrysanthemi ligand-gated ion channel (ELIC), wild type (from UniProt P0C7B7 1-321)
